The values that follow come from publication PMC11848572, “Expanding the Functions of KHSRP Protein: Insights into DNA G‐Quadruplex Binding”.

Data set [1] addresses T1, KHSRP130-503 (four KH domains) (Homo sapiens) (UniProt Q92945).
T1 sequence (looked up): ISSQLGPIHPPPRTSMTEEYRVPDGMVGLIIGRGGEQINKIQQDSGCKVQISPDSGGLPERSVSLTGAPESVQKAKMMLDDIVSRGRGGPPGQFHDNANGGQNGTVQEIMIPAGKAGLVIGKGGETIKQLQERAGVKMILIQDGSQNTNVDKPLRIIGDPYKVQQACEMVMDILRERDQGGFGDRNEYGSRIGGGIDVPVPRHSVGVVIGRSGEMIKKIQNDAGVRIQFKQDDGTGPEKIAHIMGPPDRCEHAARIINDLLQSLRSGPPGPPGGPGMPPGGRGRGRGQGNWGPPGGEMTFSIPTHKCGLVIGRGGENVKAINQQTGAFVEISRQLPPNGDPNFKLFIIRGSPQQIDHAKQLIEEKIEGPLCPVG
Put plainly: NMR titration of complex. The settings on record: pyridostatin; recombinant protein; residues 130-503; protein details: N-terminal His-tag (pET-28a), TEV-cleaved; folded or branched DNA.

The target in data set [2] is T1, KHSRP130-503 (four KH domains) (Homo sapiens). Nature of the data set: 1D 1H NMR. Conditions: recombinant protein; residues 130-503; protein details: N-terminal His-tag (pET-28a), TEV-cleaved; folded or branched DNA.

Weaker means in comparison with the reference protein, sequence or condition of that experiment. Protein sequences can lack the tags named with them. For some of these results: Construct, isoform or probe ends are uncertain for at least one entry.

Consider CGGGCGGGCGCTAGGGAGGGT [c-Kit2], for which, in data set [1], the binding result is “binds more weakly”. In the case of GGGCGCGGGAGGAATTGGGCGGG [Bcl-2], in data set [2], the binding result is given as “binds more weakly”.

For TGAGGGTGGGTAGGGTGGGTAA [c-Myc], the binding result in data set [1] was “binds more weakly”.

As to TTGGGTTAGGGTTAGGGTTAGGGA [mTel24], the binding result in data set [2] is reported as “binds more weakly”.
